The values below come from PMC12139081.

Protein sequences, listed by entry. Tags and fused reporters are not part of them.
UniProt P05787: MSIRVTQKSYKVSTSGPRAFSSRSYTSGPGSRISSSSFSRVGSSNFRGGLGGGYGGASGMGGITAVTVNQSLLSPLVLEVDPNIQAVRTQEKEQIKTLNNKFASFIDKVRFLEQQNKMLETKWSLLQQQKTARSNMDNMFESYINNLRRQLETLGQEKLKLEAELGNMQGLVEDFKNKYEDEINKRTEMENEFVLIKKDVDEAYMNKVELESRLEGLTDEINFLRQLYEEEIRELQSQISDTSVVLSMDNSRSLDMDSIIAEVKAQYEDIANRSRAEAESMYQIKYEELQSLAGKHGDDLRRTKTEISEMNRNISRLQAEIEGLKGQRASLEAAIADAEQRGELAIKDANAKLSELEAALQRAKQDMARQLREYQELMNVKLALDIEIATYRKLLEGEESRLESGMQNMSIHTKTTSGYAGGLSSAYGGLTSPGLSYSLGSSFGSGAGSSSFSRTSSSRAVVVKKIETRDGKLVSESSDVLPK

The experiment addresses endogenous keratin 8 (K8) of HEK293 cells (human (endogenous in HEK293)) (UniProt P05787). In words: co-IP; HEK293 cells transfected with V5-tagged SCHAD, crosslinked with 1% paraformaldehyde for 10 min; lysate incubated overnight at 4 °C with agarose beads coupled to the M20 anti-K8 antibody; control agarose resin as negative control; western blot for SCHAD (HPA039588) and K8 (M20). A general note: A western blot detects proteins with antibodies after separation by electrophoresis.

These are yes or no findings as the source states them, for the method shown. In cells and extracts the contact can be indirect. Some results given as binding are weak or reduced against the parent protein; the word gives no strength. Where a sequence is shown, tags or fusion partners need not be part of it.

B1: V5-tagged SCHAD (WT SCHAD-V5) (enzyme, UniProt Q16836 13-314)
chain: SSSSTASASAKKIIVKHVTVIGGGLMGAGIAQVAAATGHTVVLVDQTEDILAKSKKGIEESLRKVAKKKFAENLKAGDEFVEKTLSTIATSTDAASVVHSTDLVVEAIVENLKVKNELFKRLDKFAAEHTIFASNTSSLQITSIANATTRQDRFAGLHFFNPVPVMKLVEVIKTPMTSQKTFESLVDFSKALGKHPVSCKDTPGFIVNRLLVPYLMEAIRLYERGDASKEDIDTAMKLGAGYPMGPFELLDYVGLDTTKFIVDGWHEMDAENPLHQPSPSLNKLVAENKFGKKTGEGFYKYK
Turning to B1, the binding result was “binds”.

B2: endogenous SCHAD protein of HEK293 cells (enzyme, UniProt Q16836 13-314)
chain: SSSSTASASAKKIIVKHVTVIGGGLMGAGIAQVAAATGHTVVLVDQTEDILAKSKKGIEESLRKVAKKKFAENLKAGDEFVEKTLSTIATSTDAASVVHSTDLVVEAIVENLKVKNELFKRLDKFAAEHTIFASNTSSLQITSIANATTRQDRFAGLHFFNPVPVMKLVEVIKTPMTSQKTFESLVDFSKALGKHPVSCKDTPGFIVNRLLVPYLMEAIRLYERGDASKEDIDTAMKLGAGYPMGPFELLDYVGLDTTKFIVDGWHEMDAENPLHQPSPSLNKLVAENKFGKKTGEGFYKYK
On to B2, for which the binding result was “binds”.
